Assay [1] has as its target T1, mPER3-V5 (mouse) (UniProt O70361).
T1 sequence (looked up): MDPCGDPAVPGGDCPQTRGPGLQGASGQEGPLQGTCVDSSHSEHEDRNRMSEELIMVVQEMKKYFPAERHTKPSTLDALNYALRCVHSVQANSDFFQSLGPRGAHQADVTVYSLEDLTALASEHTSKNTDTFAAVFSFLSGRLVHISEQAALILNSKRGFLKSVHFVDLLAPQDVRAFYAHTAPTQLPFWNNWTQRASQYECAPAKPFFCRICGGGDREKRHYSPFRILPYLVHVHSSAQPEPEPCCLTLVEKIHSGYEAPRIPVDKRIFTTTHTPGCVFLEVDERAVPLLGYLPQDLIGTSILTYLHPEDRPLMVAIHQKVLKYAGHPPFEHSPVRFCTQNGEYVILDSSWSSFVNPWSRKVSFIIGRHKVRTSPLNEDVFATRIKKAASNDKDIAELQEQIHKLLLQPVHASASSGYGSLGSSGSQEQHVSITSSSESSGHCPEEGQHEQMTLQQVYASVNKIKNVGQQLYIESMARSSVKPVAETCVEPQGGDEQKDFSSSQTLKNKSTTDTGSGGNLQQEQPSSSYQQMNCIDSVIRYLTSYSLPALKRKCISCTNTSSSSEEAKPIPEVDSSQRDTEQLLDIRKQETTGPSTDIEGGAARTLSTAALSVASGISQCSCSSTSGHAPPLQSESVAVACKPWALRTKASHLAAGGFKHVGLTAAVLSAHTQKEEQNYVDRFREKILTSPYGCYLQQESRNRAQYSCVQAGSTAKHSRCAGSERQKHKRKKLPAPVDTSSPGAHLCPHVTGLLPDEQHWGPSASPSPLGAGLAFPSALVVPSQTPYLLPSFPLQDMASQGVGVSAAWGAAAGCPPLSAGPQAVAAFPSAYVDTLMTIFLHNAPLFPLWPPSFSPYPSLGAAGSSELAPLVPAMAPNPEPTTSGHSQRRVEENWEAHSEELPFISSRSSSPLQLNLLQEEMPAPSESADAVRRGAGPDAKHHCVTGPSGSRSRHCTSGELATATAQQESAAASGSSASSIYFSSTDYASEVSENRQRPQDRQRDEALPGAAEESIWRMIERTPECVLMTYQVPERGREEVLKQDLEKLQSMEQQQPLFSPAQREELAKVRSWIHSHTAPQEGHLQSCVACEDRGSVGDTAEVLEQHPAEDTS
Briefly: co-immunoprecipitation from co-transfected COS7 cells, anti-HA IP, anti-V5 blot.

The chains behind the UniProt entries cited, without tags or fusion partners.
UniProt O54943: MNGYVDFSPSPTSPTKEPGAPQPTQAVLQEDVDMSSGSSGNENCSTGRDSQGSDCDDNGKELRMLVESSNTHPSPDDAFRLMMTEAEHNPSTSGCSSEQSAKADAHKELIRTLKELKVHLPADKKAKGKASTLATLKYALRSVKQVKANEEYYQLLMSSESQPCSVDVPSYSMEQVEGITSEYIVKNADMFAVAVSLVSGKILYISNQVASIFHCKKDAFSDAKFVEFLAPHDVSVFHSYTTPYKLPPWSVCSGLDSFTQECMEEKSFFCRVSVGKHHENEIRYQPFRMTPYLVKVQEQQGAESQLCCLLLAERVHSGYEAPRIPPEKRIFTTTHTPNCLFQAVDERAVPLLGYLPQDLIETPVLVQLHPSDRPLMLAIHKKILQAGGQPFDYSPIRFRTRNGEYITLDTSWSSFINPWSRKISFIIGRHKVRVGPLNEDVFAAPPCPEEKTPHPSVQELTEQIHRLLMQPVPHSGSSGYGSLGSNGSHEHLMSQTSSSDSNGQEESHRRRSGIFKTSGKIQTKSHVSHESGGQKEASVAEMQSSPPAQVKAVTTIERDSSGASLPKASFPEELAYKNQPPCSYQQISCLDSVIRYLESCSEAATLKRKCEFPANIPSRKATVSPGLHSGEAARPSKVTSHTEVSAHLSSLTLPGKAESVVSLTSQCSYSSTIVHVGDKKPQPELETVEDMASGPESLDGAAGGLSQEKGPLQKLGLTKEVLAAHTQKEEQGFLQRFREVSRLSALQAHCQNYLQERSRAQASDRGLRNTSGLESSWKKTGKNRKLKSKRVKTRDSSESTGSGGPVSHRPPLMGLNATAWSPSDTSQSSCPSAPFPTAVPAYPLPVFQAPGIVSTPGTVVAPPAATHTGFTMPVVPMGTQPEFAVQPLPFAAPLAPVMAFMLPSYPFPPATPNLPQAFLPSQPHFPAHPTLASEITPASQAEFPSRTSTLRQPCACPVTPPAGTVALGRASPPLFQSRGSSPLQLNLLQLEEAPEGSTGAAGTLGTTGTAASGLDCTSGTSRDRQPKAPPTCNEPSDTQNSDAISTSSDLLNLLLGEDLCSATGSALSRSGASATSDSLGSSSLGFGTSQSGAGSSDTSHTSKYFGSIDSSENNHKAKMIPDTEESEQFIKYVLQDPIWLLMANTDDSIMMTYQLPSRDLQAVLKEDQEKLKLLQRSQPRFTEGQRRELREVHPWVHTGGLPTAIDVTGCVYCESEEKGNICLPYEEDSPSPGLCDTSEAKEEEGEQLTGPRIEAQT
UniProt O35973: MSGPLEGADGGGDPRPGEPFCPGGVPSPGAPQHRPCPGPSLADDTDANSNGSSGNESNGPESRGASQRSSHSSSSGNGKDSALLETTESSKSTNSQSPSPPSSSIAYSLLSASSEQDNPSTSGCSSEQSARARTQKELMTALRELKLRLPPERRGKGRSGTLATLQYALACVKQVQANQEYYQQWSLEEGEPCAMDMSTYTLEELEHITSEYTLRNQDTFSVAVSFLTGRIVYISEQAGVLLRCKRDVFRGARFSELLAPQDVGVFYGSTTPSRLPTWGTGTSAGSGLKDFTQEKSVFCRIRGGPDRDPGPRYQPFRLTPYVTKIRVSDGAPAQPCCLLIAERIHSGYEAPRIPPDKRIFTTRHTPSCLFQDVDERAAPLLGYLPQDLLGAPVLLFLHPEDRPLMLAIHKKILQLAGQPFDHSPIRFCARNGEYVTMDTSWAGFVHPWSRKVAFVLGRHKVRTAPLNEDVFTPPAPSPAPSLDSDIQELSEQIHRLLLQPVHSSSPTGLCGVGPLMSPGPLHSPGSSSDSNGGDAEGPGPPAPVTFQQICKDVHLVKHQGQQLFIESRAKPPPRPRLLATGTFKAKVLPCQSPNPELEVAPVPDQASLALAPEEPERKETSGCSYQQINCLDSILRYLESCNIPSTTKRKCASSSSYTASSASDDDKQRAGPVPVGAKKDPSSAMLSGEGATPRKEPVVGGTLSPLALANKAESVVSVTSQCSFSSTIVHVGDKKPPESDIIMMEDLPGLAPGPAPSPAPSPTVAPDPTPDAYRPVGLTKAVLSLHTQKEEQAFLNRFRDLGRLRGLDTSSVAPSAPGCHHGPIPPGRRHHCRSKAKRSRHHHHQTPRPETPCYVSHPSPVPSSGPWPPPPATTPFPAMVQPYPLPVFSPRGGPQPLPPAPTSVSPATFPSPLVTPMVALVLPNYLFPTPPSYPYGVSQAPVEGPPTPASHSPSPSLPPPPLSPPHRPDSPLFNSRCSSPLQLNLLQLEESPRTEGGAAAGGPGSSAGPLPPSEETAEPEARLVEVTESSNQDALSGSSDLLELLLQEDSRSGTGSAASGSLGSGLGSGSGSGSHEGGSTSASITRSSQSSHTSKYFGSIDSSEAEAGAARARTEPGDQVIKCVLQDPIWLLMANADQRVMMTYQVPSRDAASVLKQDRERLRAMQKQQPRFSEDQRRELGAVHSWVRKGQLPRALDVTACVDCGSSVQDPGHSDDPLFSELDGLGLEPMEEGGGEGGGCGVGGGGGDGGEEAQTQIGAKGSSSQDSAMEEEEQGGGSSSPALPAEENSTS

For assay [2], the target named is mPER2-V5 (mouse) (UniProt O54943). Described as above.
In assay [3] the target is mPER1-V5 (mouse) (UniProt O35973). The description is as above.
Assay [4] concerns the target T2, CYC (Drosophila) (UniProt O61734).
T2 sequence (looked up): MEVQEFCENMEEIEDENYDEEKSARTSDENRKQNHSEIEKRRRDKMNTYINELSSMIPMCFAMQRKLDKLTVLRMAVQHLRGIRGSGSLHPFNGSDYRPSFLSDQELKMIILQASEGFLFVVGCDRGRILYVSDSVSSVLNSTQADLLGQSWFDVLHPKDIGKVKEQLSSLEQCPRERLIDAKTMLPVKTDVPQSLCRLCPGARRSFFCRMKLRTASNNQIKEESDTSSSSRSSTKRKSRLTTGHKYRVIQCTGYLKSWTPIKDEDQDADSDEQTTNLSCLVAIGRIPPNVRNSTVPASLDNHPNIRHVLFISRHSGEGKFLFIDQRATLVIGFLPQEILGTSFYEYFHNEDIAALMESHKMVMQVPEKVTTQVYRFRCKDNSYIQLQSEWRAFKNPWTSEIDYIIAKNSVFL
The experiment in a line: yeast two-hybrid.

Assay [5] addresses T1, mPER3-V5 (mouse). Briefly: co-immunoprecipitation from co-transfected COS7 cells, anti-HA IP, anti-V5 blot. The source holds these as a separate data set.
Assay [6] has as its target mPER2-V5 (mouse) (UniProt O54943). Described as above. This is another data set of the same source.
Assay [7] has as its target mPER1-V5 (mouse) (UniProt O35973). Described as above. This is another data set of the same source.

These results are taken from patent US6475744 (GENERAL HOSPITAL CORPORATION A MASSACHUSETTS, dated 2002).

Like-named read-outs stand apart in the source and are kept apart here. No constants are given. Whether binding was seen depends on the method and setting. For some of these results: In cells and extracts the contact can be indirect. Some binding calls cover weakened binding; strength is not graded here. For some of these results: Sequences can lack the tags named with a protein.

Consider mPER1-HA (from UniProt O35973 1-1291), for which the binding entry in assay [1], in assay [2] and in assay [3] was “binds” in each case.

B1: mCLOCK (other, mouse, UniProt O08785 1-855, looked up)
chain: MVFTVSCSKMSSIVDRDDSSIFDGLVEEDDKDKAKRVSRNKSEKKRRDQFNVLIKELGSMLPGNARKMDKSTVLQKSIDFLRKHKETTAQSDASEIRQDWKPTFLSNEEFTQLMLEALDGFFLAIMTDGSIIYVSESVTSLLEHLPSDLVDQSIFNFIPEGEHSEVYKILSTHLLESDSLTPEYLKSKNQLEFCCHMLRGTIDPKEPSTYEYVRFIGNFKSLTSVSTSTHNGFEGTIQRTHRPSYEDRVCFVATVRLATPQFIKEMCTVEEPNEEFTSRHSLEWKFLFLDHRAPPIIGYLPFEVLGTSGYDYYHVDDLENLAKCHEHLMQYGKGKSCYYRFLTKGQQWIWLQTHYYITYHQWNSRPEFIVCTHTVVSYAEVRAERRRELGIEESLPETAADKSQDSGSDNRINTVSLKEALERFDHSPTPSASSRSSRKSSHTAVSDPSSTPTKIPTDTSTPPRQHLPAHEKMTQRRSSFSSQSINSQSVGPSLTQPAMSQAANLPIPQGMSQFQFSAQLGAMQHLKDQLEQRTRMIEANIHRQQEELRKIQEQLQMVHGQGLQMFLQQSNPGLNFGSVQLSSGNSNIQQLTPVNMQGQVVPANQVQSGHISTGQHMIQQQTLQSTSTQQSQQSVMSGHSQQTSLPSQTPSTLTAPLYNTMVISQPAAGSMVQIPSSMPQNSTQSATVTTFTQDRQIRFSQGQQLVTKLVTAPVACGAVMVPSTMLMGQVVTAYPTFATQQQQAQTLSVTQQQQQQQQQPPQQQQQQQQSSQEQQLPSVQQPAQAQLGQPPQQFLQTSRLLHGNPSTQLILSAAFPLQQSTFPPSHHQQHQPQQQQQLPRHRTDSLTDPSKVQPQ
Regarding B1, the binding entry in assay [4] was “binds”.

B2: mPER3-HA (other, mouse, UniProt O70361 1-1113, looked up, not shown: small tags and cut ends)
chain: T1 sequence (looked up)
notes: Expressed in COS7 cells from pcDNA 3.1; immunoprecipitated with anti-HA antibody
Turning to B2, the binding entry in assay [5], in assay [6] and in assay [7] was “binds” throughout.
